These are literature values, as cited in patent US9789098B2, “Nootropic compositions for improving memory performance” (Pharnext, priority 2012, dated 2017).

Each structure is given as a SMILES string.

For this series the following is noted: scopolamine, reference [34]; cited from earlier work.

For the compound `CN1[C@@H]2C[C@@H](OC(=O)[C@H](CO)c3ccccc3)C[C@H]1[C@@H]1O[C@@H]12` [Scopolamine, scopolamine], the Tmax entry is “about 3 hours”.
